In the supplement of paper PMC10373366:
Structures can show the parent of a compound that is named as a salt. The list shows a part of the results. Most values come without repeats; read them as rough.

What was measured:
[1] = test system: patient-derived ovarian cancer cells (PDC); assay: cell growth inhibition ratio vs untreated control (CCK8); higher = stronger inhibition of cell viability; details: 10 µM; 48 h
Experimental: (§1)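 Natural product library (Topscience) screened at 10 µM final concentration for 48 h on ovarian cancer A2780 cells and patient-derived ovarian cancer cells (PDC) in 96-well plates; viability read by CCK8 and reported as inhibition ratio (%) relative to untreated control. Single-dose primary screen.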

A2780 = assay: as above; details: 10 µM; 48 h
Experimental: as §1

## C[C@]12CC[C@H](O)C[C@@H]1CC[C@@H]1[C@@H]2CC[C@]2(C)C(=O)CC[C@@H]12 [Epiandrosterone]
[1]
  cell growth inhibition ratio: -8.03%

## C[C@@H]1O[C@@H](O[C@H]2C[C@@H](O)[C@]3(CO)[C@H]4[C@H](O)C[C@]5(C)[C@@H](C6=CC(=O)OC6)CC[C@]5(O)[C@@H]4CC[C@]3(O)C2)[C@H](O)[C@H](O)[C@H]1O [Ouabain octahydrate]
A2780
  cell growth inhibition ratio: 87.7%
[1]
  cell growth inhibition ratio: 68.6%

## COc1cc(OC)c(OC)cc1C=O [Asarylaldehyde]
[1]
  cell growth inhibition ratio: -15.1%

## CC1=C2C[C@H]3[C@@H](CC=C4C[C@@H](O)CC[C@@]43C)[C@@H]2CC[C@]12O[C@@H]1C[C@H](C)CN[C@H]1[C@H]2C [Cyclopamine]
[1]
  cell growth inhibition ratio: 14.1%

## C/C=C/c1cc(OC)c(OC)cc1OC [alpha-Asarone]
A2780
  cell growth inhibition ratio: 8.99%
[1]
  cell growth inhibition ratio: -0.023%

## COc1ccc2c3c([nH]c2c1)C(C)=NCC3 [Harmaline]
[1]
  cell growth inhibition ratio: -1.29%

## COc1cc2c3c(c1OC)-c1ccccc1C[C@H]3N(C)CC2 [Nuciferine]
[1]
  cell growth inhibition ratio: 2%

## CC(C)=CCC[C@@](C)(O)[C@H]1CC[C@]2(C)[C@@H]1[C@H](O)C[C@@H]1[C@@]3(C)CC[C@H](O)C(C)(C)[C@@H]3[C@@H](O[C@@H]3O[C@H](CO)[C@@H](O)[C@H](O)[C@H]3O)C[C@]12C [(20R)-Ginsenoside Rh1]
[1]
  cell growth inhibition ratio: -7.86%

## O=C1CCC[C@@H]2[C@H]3CCCN4CCC[C@@H](CN12)[C@@H]34 [(+)-Matrine]
[1]
  cell growth inhibition ratio: 1.71%

## O=c1cccc2n1C[C@@H]1CNC[C@H]2C1 [Cytisine]
[1]
  cell growth inhibition ratio: 17.8%

## COc1cc2c(cc1OC)[C@@H](Cc1ccc(O)c(Oc3cc4c(cc3OC)CCN(C)[C@@H]4Cc3ccc(O)cc3)c1)N(C)CC2.[O-][Cl+3]([O-])([O-])O [Liensinine Perchlorate]
[1]
  cell growth inhibition ratio: 13.3%

## C[C@H]1CC(=O)C[C@@H]2CC[C@H]3[C@@H]4CC[C@H](O)[C@@]4(C)CC[C@@H]3[C@]21C [Mesterolone]
A2780
  cell growth inhibition ratio: 13.3%
[1]
  cell growth inhibition ratio: 13.1%

## C[C@]12C=CC(=O)C=C1CC[C@@H]1[C@@H]2CC[C@@]2(C)[C@H]1CC[C@]2(C)O [Methandrostenolone]
[1]
  cell growth inhibition ratio: 21.5%

## NCCc1c[nH]c2ccc(O)cc12 [Serotonin hydrochloride]
A2780
  cell growth inhibition ratio: 7.36%
[1]
  cell growth inhibition ratio: 1.96%

## COC1=C[C@]23CCCN2CCc2cc4c(cc2[C@@H]3[C@@H]1O)OCO4 [Cephalotaxine]
[1]
  cell growth inhibition ratio: -2.64%

## CCC12C=CCN3CC[C@@]4(c5ccc(OC)cc5N(C)[C@H]4[C@@](O)(C(=O)OC)[C@@H]1OC(C)=O)[C@@H]32 (stereo not given in full) [Vindoline]
A2780
  cell growth inhibition ratio: -1.16%
[1]
  cell growth inhibition ratio: -4.71%

## C[C@@H]1CC[C@H]2[C@@H](C)C(=O)O[C@@H]3O[C@@]4(C)CC[C@@H]1[C@]32OO4 [Artemisinin]
A2780
  cell growth inhibition ratio: -36.6%
[1]
  cell growth inhibition ratio: -20.7%

## C=C[C@@H]1C2=CCOC(=O)C2=CO[C@H]1O[C@@H]1O[C@H](CO)[C@@H](O)[C@H](O)[C@H]1O [Gentiopicrin]
[1]
  cell growth inhibition ratio: 6.41%

## O=C1CCC[C@@H]2[C@H]3CCCN4CCC[C@H](CN12)[C@@H]34 [Sophoridine]
[1]
  cell growth inhibition ratio: 3.97%

## O=C(O)CC[N+](=O)[O-] [Bovinocidin]
A2780
  cell growth inhibition ratio: 1.17%
[1]
  cell growth inhibition ratio: -24.4%

## COC(=O)C1=CCCN(C)C1 [Arecoline HBr]
[1]
  cell growth inhibition ratio: -16%

## CCCC[N+]1(C)[C@@H]2C[C@@H](OC(=O)[C@H](CO)c3ccccc3)C[C@H]1[C@@H]1O[C@@H]12 (stereo not given in full) [Scopolamine butylbromide]
A2780
  cell growth inhibition ratio: 5.88%
[1]
  cell growth inhibition ratio: -14.4%

## COc1ccc2c(c[n+](C)c3c4cc5c(cc4ccc23)OCO5)c1OC [Chelerythrine chloride]
A2780
  cell growth inhibition ratio: 92.5%
[1]
  cell growth inhibition ratio: 35.3%

## COc1ccc(C(=O)O)cc1OC [Veratric acid]
A2780
  cell growth inhibition ratio: 4.91%
[1]
  cell growth inhibition ratio: -0.589%

## CC(C)=CCC[C@](C)(O)[C@H]1CC[C@]2(C)[C@@H]1[C@H](O)C[C@@H]1[C@@]3(C)CC[C@H](O)C(C)(C)[C@@H]3[C@@H](O[C@@H]3O[C@H](CO)[C@@H](O)[C@H](O)[C@H]3O)C[C@]12C [Ginsenoside Rh1]
[1]
  cell growth inhibition ratio: 2.56%

## CC(=O)OC(C)(C)/C=C/C(=O)[C@](C)(O)[C@H]1[C@H](O)C[C@@]2(C)[C@@H]3CC=C4[C@H](C[C@H](O)C(=O)C4(C)C)[C@]3(C)C(=O)C[C@]12C [Cucurbitacin B]
[1]
  cell growth inhibition ratio: 82.5%

## O=c1ccc2ccc3occc3c2o1 [Isopsoralen]
[1]
  cell growth inhibition ratio: 4.1%

## NCCc1ccc(O)cc1 [Tyramine]
[1]
  cell growth inhibition ratio: 62.7%

## CC(=O)O[C@H]1CC[C@H]2[C@@H]3CCC4=CC(=O)CCC4=C3C=C[C@]12C [Trenbolone acetate]
A2780
  cell growth inhibition ratio: -36.6%
[1]
  cell growth inhibition ratio: -14%
